pIC50: −log10 of the molar value.
Tested on: HCC827
Experiment: Cell viability assay, 3D hanging drop cell culture (CellTiter GLO 3D)
Assay type: cell-based
Details: Homo sapiens, HCC827, 72 h, read-out: IC50 antitumor activity HCC827 3D
Method: Compounds are diluted 1:3. 500 nL (for 2 D cell culture) or 400 nL (for 3 D cell culture) of compound were transferred from mother plate to test plate by using Mosquito (TTP labtech). DMSO percentage in test concentrations was 0.5 − 1.0%. Starting concentration of the test compounds and standard compound doxorubicin was 50 µM (2 D cell culture) or 100 µM (3 D cell culture).
Cells were grown in 96 well Perfecta 3 D hanging drop plates 5000 cell/well for 4 days until spheres were formed (and checked under the microscope). After sphere formation cells were treated with compounds followed by 72 h incubation. Cell viability assay was performed according to the manufacturer’s instruction, using CellTiter GLO 3 D for 3 D cell culture (Promega); cell incubation was 5 min on the shaker followed by 25 min incubation in the dark. Plates were read using PE EnVision luminescence.
Calculation of IC50 data, curves and QC analysis is made by using Excel tools and GraphPadPrism software (La Jolla, CA), v. […] QC criteria parameters (Z', S:B, R2, HillSlope) were checked for every IC50 curve.

CN[C@@H]1C[C@H]2O[C@@](C)([C@@H]1OC)n1c3ccccc3c3c4c(c5c6ccccc6n2c5c31)C(=O)NC4 [Staurosporine, reference compound]
pIC50: 7.70

Reference: PMC7801115, “Preclinical in vitro screening of newly synthesised amidino substituted benzimidazoles and benzothiazoles” (Journal of Enzyme Inhibition and Medicinal Chemistry, 2021)
